The campaign covered roughly 290,000 compounds. About 570 (0.2%) were called active. The inconclusive results got no clear call from the source; some entries with a clear call stand among them for comparison. No stated cut-off is given here; in the data, active means inhibition mostly above about 51% (no sharp cut-off); inconclusive means no clear call, values can overlap the other calls; inactive means mostly below about 53%.
molecular target: Voltage-dependent N-type calcium channel subunit alpha-1B (Homo sapiens) (UniProt Q00975); assay: disruptors of CaV2.2 binding to Mint1 – biochemical, HTRF (AID 2073); conditions: HTRF protein-protein interaction, Mint1-CaV2.2; at 20 µM; hits give high values

The chains behind the UniProt entries cited, without tags or fusion partners.
UniProt Q00975, whole entry, looked up: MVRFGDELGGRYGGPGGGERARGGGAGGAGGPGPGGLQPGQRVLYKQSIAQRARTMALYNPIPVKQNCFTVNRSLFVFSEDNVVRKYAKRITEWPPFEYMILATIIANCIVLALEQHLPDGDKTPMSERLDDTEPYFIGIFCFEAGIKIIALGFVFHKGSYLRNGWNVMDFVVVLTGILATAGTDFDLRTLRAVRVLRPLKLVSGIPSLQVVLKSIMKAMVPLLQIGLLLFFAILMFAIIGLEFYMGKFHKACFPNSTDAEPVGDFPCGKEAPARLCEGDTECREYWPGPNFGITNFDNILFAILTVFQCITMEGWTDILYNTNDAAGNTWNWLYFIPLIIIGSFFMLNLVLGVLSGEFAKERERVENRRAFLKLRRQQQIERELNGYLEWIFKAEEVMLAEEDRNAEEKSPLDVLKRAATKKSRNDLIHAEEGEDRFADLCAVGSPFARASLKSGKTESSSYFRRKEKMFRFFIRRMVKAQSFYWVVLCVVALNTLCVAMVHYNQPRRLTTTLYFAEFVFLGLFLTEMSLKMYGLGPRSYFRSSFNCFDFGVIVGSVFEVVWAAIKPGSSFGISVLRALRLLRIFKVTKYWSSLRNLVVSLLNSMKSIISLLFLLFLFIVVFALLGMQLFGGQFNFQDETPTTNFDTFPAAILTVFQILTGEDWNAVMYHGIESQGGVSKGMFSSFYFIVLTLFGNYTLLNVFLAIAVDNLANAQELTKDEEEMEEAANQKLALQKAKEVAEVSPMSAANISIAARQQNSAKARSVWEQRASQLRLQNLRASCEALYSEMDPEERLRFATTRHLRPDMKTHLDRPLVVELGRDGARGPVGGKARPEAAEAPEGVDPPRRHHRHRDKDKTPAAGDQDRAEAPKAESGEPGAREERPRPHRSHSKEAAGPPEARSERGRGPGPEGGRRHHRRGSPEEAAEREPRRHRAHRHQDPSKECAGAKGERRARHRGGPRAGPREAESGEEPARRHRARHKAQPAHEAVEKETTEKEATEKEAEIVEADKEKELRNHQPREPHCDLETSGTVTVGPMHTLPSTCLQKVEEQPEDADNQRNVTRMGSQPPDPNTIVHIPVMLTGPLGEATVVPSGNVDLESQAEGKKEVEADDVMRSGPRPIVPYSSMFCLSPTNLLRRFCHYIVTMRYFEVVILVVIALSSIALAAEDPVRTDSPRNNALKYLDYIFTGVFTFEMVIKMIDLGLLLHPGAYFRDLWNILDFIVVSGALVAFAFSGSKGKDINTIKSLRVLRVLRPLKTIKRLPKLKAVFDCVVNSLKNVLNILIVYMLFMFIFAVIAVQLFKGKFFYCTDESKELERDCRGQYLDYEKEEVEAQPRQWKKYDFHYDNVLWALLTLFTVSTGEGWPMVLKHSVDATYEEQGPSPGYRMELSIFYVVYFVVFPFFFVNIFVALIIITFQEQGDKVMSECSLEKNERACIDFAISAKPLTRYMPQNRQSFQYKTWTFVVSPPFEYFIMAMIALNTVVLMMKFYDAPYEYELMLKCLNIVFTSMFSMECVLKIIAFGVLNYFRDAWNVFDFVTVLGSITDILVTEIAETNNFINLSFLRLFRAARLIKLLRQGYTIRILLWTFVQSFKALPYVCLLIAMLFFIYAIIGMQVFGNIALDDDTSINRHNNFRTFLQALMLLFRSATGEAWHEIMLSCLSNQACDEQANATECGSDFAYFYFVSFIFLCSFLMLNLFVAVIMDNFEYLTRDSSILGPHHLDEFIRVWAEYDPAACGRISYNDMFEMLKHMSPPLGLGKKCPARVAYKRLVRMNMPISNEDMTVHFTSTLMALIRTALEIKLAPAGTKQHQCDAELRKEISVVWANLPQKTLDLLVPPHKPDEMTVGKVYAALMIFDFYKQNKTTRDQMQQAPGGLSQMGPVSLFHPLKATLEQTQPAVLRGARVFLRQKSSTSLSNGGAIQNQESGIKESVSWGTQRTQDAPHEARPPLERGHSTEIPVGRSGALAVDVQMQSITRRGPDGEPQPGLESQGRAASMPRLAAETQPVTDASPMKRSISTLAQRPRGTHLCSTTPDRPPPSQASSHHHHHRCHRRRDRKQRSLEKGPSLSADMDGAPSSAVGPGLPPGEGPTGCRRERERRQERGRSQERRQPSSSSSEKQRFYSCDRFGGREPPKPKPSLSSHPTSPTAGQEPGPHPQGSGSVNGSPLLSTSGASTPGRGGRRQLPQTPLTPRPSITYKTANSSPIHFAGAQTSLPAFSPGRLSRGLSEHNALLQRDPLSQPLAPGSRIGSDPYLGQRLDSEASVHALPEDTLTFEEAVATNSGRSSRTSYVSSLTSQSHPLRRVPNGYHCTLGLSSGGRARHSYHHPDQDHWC

SMILES	inhibition
CC(=O)c1cccc(S(=O)(=O)N2CCCC(c3nc4c(nnn4Cc4cccc(Cl)c4)c(=O)[nH]3)C2)c1 (centres undefined)	inconclusive: 61.9%
COc1cc(/C=N\NC(=O)CN2CCOCC2)ccc1OCC(=O)Nc1ccc(C)c(C)c1	inconclusive: 76.6%
CS(=O)(=O)N(CC(=O)N/N=C/c1cc2c(cc1Br)OCO2)c1ccccc1Br	inconclusive: 65.6%
O=C1CCC(C(=O)N2CCN(c3ccccc3Cl)CC2)CN1CC1CCCCC1 (centres undefined)	inconclusive: 79.4%
CCC(=O)c1cc(-c2nc3ccccc3n2C)n(C)c1	inconclusive: 61.2%
O=C1CCC(=O)N(c2ccccc2)N1	inconclusive: 95.3%
CN(C(=O)C1CCC(=O)N(Cc2cccc(F)c2)C1)C1CCCCC1 (centres undefined)	inconclusive: 84.8%
CCOC(=O)c1c(CC(C)C)csc1/N=C/C1C(=O)CCCC1=O	inconclusive: 61.9%
Cc1coc2c1c(C)cc1oc(=O)c(CC(=O)N[C@@H](CC(C)C)C(=O)O)c(C)c12	inconclusive: 58%
COC(=O)c1cn(NC(=O)Cc2ccccc2Br)c(=O)c2ccccc12	inconclusive: 54.1%
CCc1c(C)nc(N)n2c(SCC(=O)N3CCCc4ccccc43)nnc12	inconclusive: 77.4%
O=C(/C=C/c1ccco1)NCC1COc2ccccc2O1 (centres undefined)	inactive: 11%
C=CCOc1ccc(/C=C2\SC(N)=NC2=O)cc1OC	inactive: 10.2%
Cc1ccc(C(=O)NCCCN2CCOCC2)c(C)c1	inconclusive: 78.4%
CC(=O)N1CCC(N(CCN2CCOCC2)C(=S)Nc2cccc(C)c2)CC1	inconclusive: 53.6%
COc1ccccc1N1C(=O)C2C(C(=O)c3ccccc3)=NN(c3ccc(C)cc3)C2C1=O (centres undefined)	inconclusive: 51.9%
O=C(NCCSCc1c(F)cccc1Cl)c1ccco1	inconclusive: 53.8%
CCc1nc2cc([N+](=O)[O-])c([N+](=O)[O-])cc2[nH]1	inconclusive: 50.9%
CCOC(=O)c1cc(-c2nnc(-c3ccc(Oc4ccccc4)cc3)o2)c(C)nc1C	inconclusive: 81.7%
CC(C)C[C@H](NC(=O)c1nc[nH]c1C(=O)NCC(=O)OC(C)(C)C)C(=O)OCc1ccccc1	inconclusive: 66.7%
O=C(NCCCN1CCOCC1)c1sc2cc(Cl)ccc2c1Cl	inactive: -10.3%
Cc1ccc(/C=C(\CCC(=O)O)c2nc3ccccc3s2)cc1[N+](=O)[O-]	inactive: 7%
CCOC(=O)CN(C(=O)COc1nc(C)cc(C)c1C#N)c1cccc(Cl)c1	inconclusive: 84.8%

Some of the entries so far, as labelled records:
CCC(=O)c1cc(-c2nc3ccccc3n2C)n(C)c1
  inhibition: inconclusive: 61.2%
COc1ccccc1N1C(=O)C2C(C(=O)c3ccccc3)=NN(c3ccc(C)cc3)C2C1=O (centres undefined)
  inhibition: inconclusive: 51.9%

More compounds.

SMILES	inhibition
CC(=O)Nc1ccc(S(=O)(=O)Nc2nc(C)cc(-n3nc(C)cc3C)n2)cc1	inconclusive: 60%
O=C1c2ccccc2C(=O)N1c1cccc(-c2nc3ccccc3o2)c1	inactive: 19.2%
CSc1ccc(CN(C)CC(=O)NCCc2ccccc2)cc1	inconclusive: 56.9%
O=C1ON=C(c2ccc([N+](=O)[O-])cc2)/C1=C/c1ccccc1O	inconclusive: 77.5%
CCOP(=O)(OCC)C(Nc1cccc(C(F)(F)F)c1)c1ccc(Br)cc1 (centres undefined)	inconclusive: 52.6%
CN(C)S(=O)(=O)c1cccc(NC(=S)Nc2cccc3cnccc23)c1	active: 51.6%
COc1ccc(Br)cc1C1CC(=O)N2CN(Cc3ccccc3)CSC2=C1C#N (centres undefined)	active: 93.2%
COC(=O)Cn1c(CCC(=O)O)ccc1-c1ccccc1	inconclusive: 79.2%
Cc1ccccc1NC(=O)NCCCN1CCCC1=O	inconclusive: 71.6%
CCCCN(Cc1ccco1)C(=O)C1CCCN(c2ncnc3c2nc2n3CCCCC2)C1 (centres undefined)	inconclusive: 80.4%
Cc1cccc(NC2=CC(=O)OC(C)C2)c1 (centres undefined)	inconclusive: 51.7%
Cc1ccc(S(=O)(=O)NCCn2nc(C)nc2C)cc1	inconclusive: 55.4%
COc1cc(/C=C2\SC(N)=NC2=O)ccc1OCC(=O)Nc1ccc(C)cc1	active: 61.4%
O=C(NCc1ccc2c(c1)OCO2)c1ccc(-c2ccc(Cl)cc2)o1	inconclusive: 78.1%
COc1ccc(-n2c(-c3cccc(OC)c3)nc(=S)c3c2CCCC3)cc1	inconclusive: 52%
CCc1nn2c(=O)cc(COc3ccc(/C=C4\C(=N)N5N=C(C)SC5=NC4=O)cc3)nc2s1	active: 60%
O=C(O)Cn1c(SCCOc2ccccc2F)nc2ccccc21	inconclusive: 78.7%
CN(C)Cc1ccccc1Sc1ccccc1Br	inconclusive: 63.6%
Cc1nn(-c2ccccc2)c2sc(C(=O)N(CC(=O)NC3CCCC3)Cc3ccco3)cc12	inconclusive: 78.4%
CC1(C)Cc2c(sc3c4nnnn4c4nnnn4c23)CO1	inconclusive: 70.9%
CC1(C)CC(=NO)CC(C)(C)N1	inconclusive: 57.7%
Cc1ccc(CC(=O)O/N=C(\N)c2ccccn2)cc1	inconclusive: 56.4%
CN(CCOc1ccc(Cl)cc1)Cc1cccc(S(=O)(=O)N(C)C)c1	inactive: -2.1%

SMILES	inhibition
COC(=O)C(C(=O)Nc1cccc(C)n1)C1CCCCCC1 (centres undefined)	inconclusive: 61%
COc1ccccc1OCCOc1ccc(C(=O)c2ccccc2)cc1	inconclusive: 55.4%
O=C(O)c1ccccc1/C=N/Nc1nc(N2CCCCC2)nc(N2CCCCC2)n1	inconclusive: 59.5%
COc1ccc(Nc2nc(C)c(-c3ccccc3)s2)cc1	inconclusive: 59.7%
C=CCn1c(-c2cccc(OC)c2)nc2nc3ccccc3nc21	inconclusive: 67.6%
COCCn1c(SCC(=O)Nc2ccc(NC(C)=O)cc2)nc2ccccc2c1=O	inactive: -7.5%
COc1cc(C(=O)N2CCN(C(=O)c3ccccc3)CC2)cc(OC)c1OC	inconclusive: 87.9%
CN(C)c1nc(C#N)nc(N(C)C)n1	inconclusive: 71.6%
COc1cc2[nH]c(=O)n(Cc3ccc(C(=O)NCC4CCCO4)cc3)c(=O)c2cc1OC (centres undefined)	inconclusive: 57.6%
COc1ccc(/C=C2\SC(=N)N(c3nccs3)C2=O)cc1OC	inactive: 20.5%
NC(=O)NC(c1ccc(Cl)cc1)c1ccccc1Cl (centres undefined)	inconclusive: 75.8%
Cc1cccc2[nH]c(CN(C)Cc3nc(CC4CC4)no3)nc12	inconclusive: 55.1%
CCN1CCN(C(=O)c2cc3c(s2)-c2c(C)cccc2OC3)CC1	inconclusive: 62.5%
COc1ccc(-c2csc(-c3cccs3)n2)c(OC)c1	inconclusive: 77.2%
COc1cc2c(cc1OC)C(c1cc3cc(OC)c(OC)cc3[nH]c1=O)N(C(=O)C1CC1)CC2 (centres undefined)	inconclusive: 51.1%
O=c1c2c([N+](=O)[O-])cc([N+](=O)[O-])cc2sn1Cc1ccccc1	inactive: 43.2%
O=C1NCCC/C1=N/Nc1cc(F)ccc1F	inconclusive: 77.1%
CC(=O)Nc1cccc(Oc2ncnc3scc(-c4ccccc4)c23)c1	inconclusive: 52.5%
O=C(O)c1ccc(CNC(=O)c2ccccc2NC(=O)c2ccc([N+](=O)[O-])cc2)cc1	inconclusive: 80.6%
CCOn1c(=O)c(-c2ccc(OC)cc2)[n+]([O-])c2ccccc21	inconclusive: 60.5%
NC1=NC(=Nc2ccc(Br)cc2)c2ccccc21	inactive: -1.5%
CC(NC(=O)c1ccc(N2CCCC2)c([N+](=O)[O-])c1)c1ccc(S(N)(=O)=O)cc1 (centres undefined)	inconclusive: 61.1%
CC(C)(CNC(=O)c1sc2cc(F)ccc2c1Cl)N1CCOCC1	inconclusive: 56%

SMILES	inhibition
Cc1ccc(S(=O)(=O)c2cc3c(=O)n4ccccc4nc3n(Cc3ccco3)c2=N)cc1C	inconclusive: 59.1%
CC(=O)Nc1ccc(/C=N/Nc2ccc(C(=O)c3c(C)cc4ccccn34)cc2[N+](=O)[O-])cc1	inactive: 50.4%
O=S(=O)(Nc1ccc(-c2nc3cccnc3s2)cc1)c1cccs1	inconclusive: 85.9%
O=c1oc2cc(O)ccc2cc1-c1ccc(F)cc1	inconclusive: 52.3%
O=C(O)CCC(=O)NCCn1c(-c2ccccc2)csc1=Nc1ccccc1	inconclusive: 65.6%
Cc1ccc(N2C(=O)CC(N3CCN(C)CC3)C2=O)cc1 (centres undefined)	inconclusive: 53.7%
O=C(NC1CC1)c1cc(-c2ccco2)nc2ccccc12	inactive: 38.6%
CC1CC(C)CN(CCCNC(=O)c2ccc3c(c2)NC(=O)C(N2CCCCC2)S3)C1 (centres undefined)	inconclusive: 96.2%
O=C(CSc1nc2ccccc2o1)Nc1ccc(N2CCOCC2)c(Cl)c1	inconclusive: 55%
Cc1cc(NC(=O)CCCn2cc([N+](=O)[O-])cn2)n(Cc2ccc(F)cc2)n1	inconclusive: 85.8%
CN(C)S(=O)(=O)c1ccc(N2CCCC2)c(C(=O)Nc2ccccc2N2CCOCC2)c1	inconclusive: 66.3%
NNC(=O)c1oc2nc(-c3ccco3)cc(-c3ccco3)c2c1N	active: 59.1%
O=C(O)CNC(=O)/C(=C\c1cccc([N+](=O)[O-])c1)NC(=O)c1ccco1	inconclusive: 86%
O=C(c1ccc(F)cc1)c1c[nH]c(C(=O)NCCCN2CCOCC2)c1	inconclusive: 68.8%
Cc1ccc(NC(=O)c2nsc(Cl)c2Cl)cc1	inactive: 18.9%
Cc1ccc(N2CCN(C(=S)Nc3ccccc3C)CC2)cc1	inactive: -9.9%
COC(=O)c1cccc(COC(=O)c2ccc(CS(=O)(=O)c3ccc(C)cc3)cc2)c1	inconclusive: 56.5%
O=C1CC(N2CCN(C3CC(=O)N(CCc4ccccc4)C3=O)CC2)C(=O)N1CCc1ccccc1 (centres undefined)	inconclusive: 50.6%
Cc1ccc(NC(=O)c2ccc([N+](=O)[O-])o2)cc1C	inconclusive: 50.4%
CN1CCC(Oc2ccccc2Sc2ccccc2)CC1	inconclusive: 56.3%

6 entries from above, bar-delimited:
SMILES | inhibition
NNC(=O)c1oc2nc(-c3ccco3)cc(-c3ccco3)c2c1N | active: 59.1%
O=C(c1ccc(F)cc1)c1c[nH]c(C(=O)NCCCN2CCOCC2)c1 | inconclusive: 68.8%
Cc1ccc(NC(=O)c2nsc(Cl)c2Cl)cc1 | inactive: 18.9%
Cc1ccc(N2CCN(C(=S)Nc3ccccc3C)CC2)cc1 | inactive: -9.9%
O=C1CC(N2CCN(C3CC(=O)N(CCc4ccccc4)C3=O)CC2)C(=O)N1CCc1ccccc1 (centres undefined) | inconclusive: 50.6%
CN1CCC(Oc2ccccc2Sc2ccccc2)CC1 | inconclusive: 56.3%
